For at least one compound, name, drawing or mass did not settle the structure. Where a SMILES comes first, the peptide text is derived from it. Bridges are numbered along the chain shown (N, C = ends).
Target: E. coli ProRS (Escherichia coli, UniProt P16659)
Assay: ProRS charging assay
Type: biochemical
Protocol: One question that could be answered with peptides designed from these phage is whether or not they are directed to random regions on the target protein or if they target active sites and regions of other biological interactions. The peptides used in the above ELSAs were added to a charging assay to assess its affects on enzymatic activity of the target.

Amino acid sequences for entries named in this document (tags omitted). A change or cut given only in a name is not applied to a line headed by its entry.
UniProt P16659: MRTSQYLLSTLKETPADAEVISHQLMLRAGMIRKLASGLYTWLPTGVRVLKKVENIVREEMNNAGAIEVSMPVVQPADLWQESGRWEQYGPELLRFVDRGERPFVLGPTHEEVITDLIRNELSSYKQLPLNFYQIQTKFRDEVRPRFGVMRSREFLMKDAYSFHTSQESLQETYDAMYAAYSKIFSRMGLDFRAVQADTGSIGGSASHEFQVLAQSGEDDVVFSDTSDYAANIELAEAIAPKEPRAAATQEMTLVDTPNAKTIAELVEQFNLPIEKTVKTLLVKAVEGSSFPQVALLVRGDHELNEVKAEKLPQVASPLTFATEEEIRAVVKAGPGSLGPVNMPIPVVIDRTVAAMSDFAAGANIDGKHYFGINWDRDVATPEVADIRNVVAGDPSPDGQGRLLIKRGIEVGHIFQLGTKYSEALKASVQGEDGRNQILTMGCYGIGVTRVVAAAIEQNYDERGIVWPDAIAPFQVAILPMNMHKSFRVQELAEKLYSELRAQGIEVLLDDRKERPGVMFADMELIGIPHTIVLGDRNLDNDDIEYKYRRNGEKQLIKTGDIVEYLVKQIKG

Q: Which Ki does the source give for CC[C@H](C)[C@@H]1NC(=O)[C@H](C)NC(=O)[C@@H](NC(=O)[C@@H](NC(=O)[C@H](CCCNC(=N)N)NC(=O)[C@@H](N)CO)C(C)C)CSSC[C@@H](C(=O)N[C@@H](CO)C(=O)N[C@@H](CCCNC(=N)N)C(=O)O)NC(=O)CNC(=O)[C@H](CC(=O)O)NC(=O)[C@H](CC(C)C)NC(=O)[C@H](CC(=O)O)NC(=O)[C@@H]2CCCN2C(=O)[C@H](Cc2c[nH]c3ccccc23)NC1=O [ProRS BioKey, S R V C A I W P D L D G C S R] (H-SRVCAIWPDLDGCSR-OH; disulfide 4-13; N-terminus and C-terminus assumed) here?
A: > 500 µM

Reference: patent US6617114B1, “Identification of drug complementary combinatorial libraries” (priority 1996, dated 2003)
